Test results from PMC3485120.
These are yes or no findings as the source states them, for the method shown. In cells and extracts the contact can be indirect. Binding calls can cover weak binding; strength is not graded here. Where a sequence is shown, tags or fusion partners need not be part of it.

Assays:
[1] = molecular target: T1, Hif2-HA fusion protein (S. pombe) (UniProt O74845); experiment: co-IP; anti-HA (HA.11) on Protein G Dynabeads, S. pombe extracts lysed under native conditions in extraction buffer (1% IGEPAL CA630, 150 mM NaCl, 50 mM Tris-HCl pH 8.0, 2 mM EDTA); immunoblot with anti-Myc (9E10)
T1 sequence: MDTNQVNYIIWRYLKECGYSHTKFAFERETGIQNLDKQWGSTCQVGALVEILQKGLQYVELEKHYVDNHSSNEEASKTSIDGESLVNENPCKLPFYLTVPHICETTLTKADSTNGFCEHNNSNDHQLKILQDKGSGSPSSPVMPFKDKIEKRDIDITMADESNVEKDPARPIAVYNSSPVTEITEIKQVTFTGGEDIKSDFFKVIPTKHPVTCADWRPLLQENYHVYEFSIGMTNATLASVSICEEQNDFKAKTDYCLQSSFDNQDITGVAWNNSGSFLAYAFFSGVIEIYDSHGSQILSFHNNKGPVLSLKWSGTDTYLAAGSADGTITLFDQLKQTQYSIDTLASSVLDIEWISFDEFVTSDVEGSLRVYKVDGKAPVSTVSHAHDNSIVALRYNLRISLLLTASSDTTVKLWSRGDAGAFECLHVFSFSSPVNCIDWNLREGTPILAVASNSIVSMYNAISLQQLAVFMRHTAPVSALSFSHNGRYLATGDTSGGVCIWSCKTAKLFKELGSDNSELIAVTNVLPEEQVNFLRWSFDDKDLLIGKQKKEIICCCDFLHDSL

[2] = molecular target: T2, Set3-HA fusion protein (S. pombe) (UniProt Q10362); experiment: as above
T2 sequence: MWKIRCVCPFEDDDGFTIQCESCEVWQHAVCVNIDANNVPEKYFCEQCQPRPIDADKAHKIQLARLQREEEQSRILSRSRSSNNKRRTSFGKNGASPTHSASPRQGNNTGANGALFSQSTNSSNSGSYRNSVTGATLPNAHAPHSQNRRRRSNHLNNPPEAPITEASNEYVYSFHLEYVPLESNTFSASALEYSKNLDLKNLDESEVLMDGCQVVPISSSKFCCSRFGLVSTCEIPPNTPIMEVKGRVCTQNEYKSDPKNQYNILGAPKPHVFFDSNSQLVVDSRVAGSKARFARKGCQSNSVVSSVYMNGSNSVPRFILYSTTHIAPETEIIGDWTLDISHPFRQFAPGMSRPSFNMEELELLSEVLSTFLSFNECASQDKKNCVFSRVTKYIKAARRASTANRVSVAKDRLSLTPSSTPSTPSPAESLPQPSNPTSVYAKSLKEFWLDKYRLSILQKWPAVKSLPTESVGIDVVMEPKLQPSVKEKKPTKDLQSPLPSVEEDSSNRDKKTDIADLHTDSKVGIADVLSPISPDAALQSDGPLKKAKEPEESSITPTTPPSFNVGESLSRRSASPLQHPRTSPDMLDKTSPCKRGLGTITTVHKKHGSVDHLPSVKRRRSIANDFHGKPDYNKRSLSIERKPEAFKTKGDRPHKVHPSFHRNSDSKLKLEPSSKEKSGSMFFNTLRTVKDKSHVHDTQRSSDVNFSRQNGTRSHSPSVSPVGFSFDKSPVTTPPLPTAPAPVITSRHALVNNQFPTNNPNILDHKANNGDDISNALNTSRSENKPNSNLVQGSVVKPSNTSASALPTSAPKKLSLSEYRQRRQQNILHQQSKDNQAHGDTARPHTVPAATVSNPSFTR

binding [1]: binds
binding [2]: binds
Substance: Hos2-Myc fusion protein (S. pombe)
